# Measurements published in patent US6825205B2 (priority 2002, dated 2004).
# Assay: in vivo
# Conditions: Sprague-Dawley, rat, ip, 10 mg/kg
smiles,measurement,value
"CN1CC[C@]23c4c5ccc(O)c4O[C@H]2[C@@H](O)C=C[C@H]3[C@H]1C5 [Morphine, reference compound]",Kp,0.42 ± 0.13
